Source: the supplement of paper PMC10849652
The other results are listed elsewhere or left out. Residues, ends and D or L forms follow the SMILES beside them. *: point of attachment. Cbz = O=C(OCc1ccccc1)*

Sequences of proteins named here, by UniProt entry; tags and fusion partners are left off. A change or cut given only in a name is not applied to a line headed by its entry.
UniProt Q9NUT2: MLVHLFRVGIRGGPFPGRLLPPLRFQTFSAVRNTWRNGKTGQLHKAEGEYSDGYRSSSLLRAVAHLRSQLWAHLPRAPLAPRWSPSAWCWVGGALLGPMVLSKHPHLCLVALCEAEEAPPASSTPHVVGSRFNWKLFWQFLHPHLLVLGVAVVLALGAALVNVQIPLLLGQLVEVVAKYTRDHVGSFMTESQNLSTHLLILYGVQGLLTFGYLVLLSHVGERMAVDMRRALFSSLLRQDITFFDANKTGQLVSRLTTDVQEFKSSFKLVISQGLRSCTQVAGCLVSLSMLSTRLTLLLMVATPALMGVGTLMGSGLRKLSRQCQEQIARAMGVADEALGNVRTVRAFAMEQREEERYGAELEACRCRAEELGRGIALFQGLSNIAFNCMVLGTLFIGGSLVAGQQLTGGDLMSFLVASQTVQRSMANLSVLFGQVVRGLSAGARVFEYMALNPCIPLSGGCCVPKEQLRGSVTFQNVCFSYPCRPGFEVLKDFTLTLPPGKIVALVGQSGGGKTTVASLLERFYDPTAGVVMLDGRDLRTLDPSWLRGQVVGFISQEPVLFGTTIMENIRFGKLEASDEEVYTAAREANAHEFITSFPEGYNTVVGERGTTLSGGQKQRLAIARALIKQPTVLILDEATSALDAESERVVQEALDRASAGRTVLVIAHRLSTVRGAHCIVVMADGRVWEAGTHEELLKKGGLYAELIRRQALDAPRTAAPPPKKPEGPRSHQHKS
UniProt Q8N2K0: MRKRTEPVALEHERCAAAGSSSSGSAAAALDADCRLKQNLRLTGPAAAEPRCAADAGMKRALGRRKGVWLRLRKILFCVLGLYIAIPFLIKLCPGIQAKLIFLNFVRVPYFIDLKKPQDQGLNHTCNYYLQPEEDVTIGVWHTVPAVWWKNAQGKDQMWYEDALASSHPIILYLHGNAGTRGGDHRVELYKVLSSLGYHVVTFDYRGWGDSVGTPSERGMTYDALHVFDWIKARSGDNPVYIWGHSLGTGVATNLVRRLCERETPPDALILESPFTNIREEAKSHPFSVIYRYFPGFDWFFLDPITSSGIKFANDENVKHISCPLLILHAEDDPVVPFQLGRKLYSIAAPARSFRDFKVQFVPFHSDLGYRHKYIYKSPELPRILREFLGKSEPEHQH
UniProt Q7Z6V5: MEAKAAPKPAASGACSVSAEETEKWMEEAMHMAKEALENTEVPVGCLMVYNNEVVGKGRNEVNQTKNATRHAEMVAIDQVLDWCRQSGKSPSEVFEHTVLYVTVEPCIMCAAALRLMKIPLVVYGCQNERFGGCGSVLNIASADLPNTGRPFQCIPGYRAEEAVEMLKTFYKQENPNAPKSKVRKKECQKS
UniProt P09110: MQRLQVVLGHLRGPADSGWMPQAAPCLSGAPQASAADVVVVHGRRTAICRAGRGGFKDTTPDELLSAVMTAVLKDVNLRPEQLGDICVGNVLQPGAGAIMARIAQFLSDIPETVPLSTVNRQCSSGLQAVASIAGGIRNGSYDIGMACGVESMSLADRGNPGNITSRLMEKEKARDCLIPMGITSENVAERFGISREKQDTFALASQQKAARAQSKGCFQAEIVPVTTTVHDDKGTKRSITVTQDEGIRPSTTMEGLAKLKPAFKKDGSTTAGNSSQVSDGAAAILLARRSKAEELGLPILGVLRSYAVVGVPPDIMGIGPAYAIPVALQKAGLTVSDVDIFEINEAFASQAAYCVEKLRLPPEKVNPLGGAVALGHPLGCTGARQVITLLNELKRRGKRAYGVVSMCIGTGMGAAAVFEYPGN
UniProt Q4G176: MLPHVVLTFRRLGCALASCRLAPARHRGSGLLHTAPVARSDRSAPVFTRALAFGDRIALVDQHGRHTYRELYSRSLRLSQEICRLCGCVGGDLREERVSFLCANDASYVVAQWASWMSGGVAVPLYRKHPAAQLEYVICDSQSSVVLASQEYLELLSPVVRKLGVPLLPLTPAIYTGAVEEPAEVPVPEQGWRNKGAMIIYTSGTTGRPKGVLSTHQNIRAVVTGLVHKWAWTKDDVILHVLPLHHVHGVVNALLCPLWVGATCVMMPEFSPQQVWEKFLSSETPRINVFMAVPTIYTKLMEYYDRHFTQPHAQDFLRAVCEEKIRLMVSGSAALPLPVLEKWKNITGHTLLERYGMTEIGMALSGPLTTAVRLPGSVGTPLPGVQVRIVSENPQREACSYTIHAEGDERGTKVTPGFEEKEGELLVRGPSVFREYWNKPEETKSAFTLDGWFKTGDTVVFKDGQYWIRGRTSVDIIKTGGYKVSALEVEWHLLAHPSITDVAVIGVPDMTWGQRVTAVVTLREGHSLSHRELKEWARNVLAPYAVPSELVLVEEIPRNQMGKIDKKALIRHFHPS
UniProt Q9NPJ3: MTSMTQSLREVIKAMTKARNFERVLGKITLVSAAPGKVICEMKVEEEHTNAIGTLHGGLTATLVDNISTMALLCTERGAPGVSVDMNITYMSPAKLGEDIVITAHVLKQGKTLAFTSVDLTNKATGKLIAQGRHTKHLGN
UniProt P55265: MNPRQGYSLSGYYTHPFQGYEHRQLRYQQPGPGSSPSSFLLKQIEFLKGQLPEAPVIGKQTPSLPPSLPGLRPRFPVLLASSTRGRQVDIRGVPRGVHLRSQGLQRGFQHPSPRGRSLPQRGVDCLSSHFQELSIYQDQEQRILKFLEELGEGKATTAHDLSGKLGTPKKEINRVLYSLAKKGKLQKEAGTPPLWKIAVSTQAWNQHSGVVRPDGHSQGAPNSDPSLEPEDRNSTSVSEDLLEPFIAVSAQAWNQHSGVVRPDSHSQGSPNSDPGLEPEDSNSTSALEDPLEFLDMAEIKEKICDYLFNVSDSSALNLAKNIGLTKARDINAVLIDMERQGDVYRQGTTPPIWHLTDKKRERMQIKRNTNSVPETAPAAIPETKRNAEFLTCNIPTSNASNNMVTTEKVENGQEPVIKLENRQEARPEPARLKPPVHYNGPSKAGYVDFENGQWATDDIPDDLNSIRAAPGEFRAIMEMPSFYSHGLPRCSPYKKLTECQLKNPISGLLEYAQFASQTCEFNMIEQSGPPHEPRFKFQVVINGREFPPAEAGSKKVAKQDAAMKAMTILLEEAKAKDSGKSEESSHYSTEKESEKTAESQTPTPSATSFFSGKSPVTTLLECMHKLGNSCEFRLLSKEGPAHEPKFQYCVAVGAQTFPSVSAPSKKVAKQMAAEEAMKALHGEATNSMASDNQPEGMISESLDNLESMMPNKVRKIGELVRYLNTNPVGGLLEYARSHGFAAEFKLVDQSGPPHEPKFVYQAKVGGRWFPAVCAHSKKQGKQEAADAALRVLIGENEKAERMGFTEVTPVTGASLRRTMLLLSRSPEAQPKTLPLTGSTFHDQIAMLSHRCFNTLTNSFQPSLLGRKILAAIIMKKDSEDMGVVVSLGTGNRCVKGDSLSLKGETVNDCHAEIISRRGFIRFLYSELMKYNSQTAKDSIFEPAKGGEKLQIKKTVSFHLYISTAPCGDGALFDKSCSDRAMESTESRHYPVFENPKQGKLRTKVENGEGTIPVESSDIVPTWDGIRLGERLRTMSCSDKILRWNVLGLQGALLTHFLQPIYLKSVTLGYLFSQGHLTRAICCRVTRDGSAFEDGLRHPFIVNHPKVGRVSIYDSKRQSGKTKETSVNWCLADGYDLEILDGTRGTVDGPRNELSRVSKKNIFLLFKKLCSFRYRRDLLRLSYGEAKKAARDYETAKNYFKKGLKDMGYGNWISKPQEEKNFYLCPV
UniProt Q6DHV7: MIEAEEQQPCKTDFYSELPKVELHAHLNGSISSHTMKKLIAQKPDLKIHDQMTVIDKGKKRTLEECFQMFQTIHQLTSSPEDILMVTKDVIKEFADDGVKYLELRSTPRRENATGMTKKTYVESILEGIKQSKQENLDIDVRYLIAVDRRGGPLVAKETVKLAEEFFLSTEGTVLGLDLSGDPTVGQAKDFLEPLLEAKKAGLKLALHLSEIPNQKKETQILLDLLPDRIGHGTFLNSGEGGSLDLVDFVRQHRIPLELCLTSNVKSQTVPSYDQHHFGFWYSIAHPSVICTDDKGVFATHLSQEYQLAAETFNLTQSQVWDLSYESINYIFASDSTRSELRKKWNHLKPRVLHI
UniProt Q8NE71: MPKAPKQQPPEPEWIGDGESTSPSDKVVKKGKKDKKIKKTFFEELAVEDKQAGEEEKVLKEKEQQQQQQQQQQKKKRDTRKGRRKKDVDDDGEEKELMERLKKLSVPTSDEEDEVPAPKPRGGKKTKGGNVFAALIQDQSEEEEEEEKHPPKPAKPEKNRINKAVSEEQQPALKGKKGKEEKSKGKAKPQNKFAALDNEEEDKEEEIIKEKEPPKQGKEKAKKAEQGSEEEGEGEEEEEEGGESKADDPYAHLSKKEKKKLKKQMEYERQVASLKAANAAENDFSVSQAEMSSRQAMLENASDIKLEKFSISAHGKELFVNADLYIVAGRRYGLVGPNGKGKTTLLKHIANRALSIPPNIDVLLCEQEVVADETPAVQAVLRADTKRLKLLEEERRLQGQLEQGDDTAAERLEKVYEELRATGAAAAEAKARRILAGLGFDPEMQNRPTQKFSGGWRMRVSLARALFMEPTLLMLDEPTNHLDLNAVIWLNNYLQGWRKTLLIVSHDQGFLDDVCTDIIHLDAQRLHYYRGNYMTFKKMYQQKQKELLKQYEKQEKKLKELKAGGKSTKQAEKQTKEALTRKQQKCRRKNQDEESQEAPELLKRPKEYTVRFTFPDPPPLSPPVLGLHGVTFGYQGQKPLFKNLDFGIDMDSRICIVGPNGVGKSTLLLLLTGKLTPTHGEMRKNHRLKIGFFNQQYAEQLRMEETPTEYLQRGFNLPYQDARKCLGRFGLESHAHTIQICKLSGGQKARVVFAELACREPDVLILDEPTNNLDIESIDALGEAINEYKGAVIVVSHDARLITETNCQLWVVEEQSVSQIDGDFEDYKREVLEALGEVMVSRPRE
UniProt O43707, whole entry, looked up: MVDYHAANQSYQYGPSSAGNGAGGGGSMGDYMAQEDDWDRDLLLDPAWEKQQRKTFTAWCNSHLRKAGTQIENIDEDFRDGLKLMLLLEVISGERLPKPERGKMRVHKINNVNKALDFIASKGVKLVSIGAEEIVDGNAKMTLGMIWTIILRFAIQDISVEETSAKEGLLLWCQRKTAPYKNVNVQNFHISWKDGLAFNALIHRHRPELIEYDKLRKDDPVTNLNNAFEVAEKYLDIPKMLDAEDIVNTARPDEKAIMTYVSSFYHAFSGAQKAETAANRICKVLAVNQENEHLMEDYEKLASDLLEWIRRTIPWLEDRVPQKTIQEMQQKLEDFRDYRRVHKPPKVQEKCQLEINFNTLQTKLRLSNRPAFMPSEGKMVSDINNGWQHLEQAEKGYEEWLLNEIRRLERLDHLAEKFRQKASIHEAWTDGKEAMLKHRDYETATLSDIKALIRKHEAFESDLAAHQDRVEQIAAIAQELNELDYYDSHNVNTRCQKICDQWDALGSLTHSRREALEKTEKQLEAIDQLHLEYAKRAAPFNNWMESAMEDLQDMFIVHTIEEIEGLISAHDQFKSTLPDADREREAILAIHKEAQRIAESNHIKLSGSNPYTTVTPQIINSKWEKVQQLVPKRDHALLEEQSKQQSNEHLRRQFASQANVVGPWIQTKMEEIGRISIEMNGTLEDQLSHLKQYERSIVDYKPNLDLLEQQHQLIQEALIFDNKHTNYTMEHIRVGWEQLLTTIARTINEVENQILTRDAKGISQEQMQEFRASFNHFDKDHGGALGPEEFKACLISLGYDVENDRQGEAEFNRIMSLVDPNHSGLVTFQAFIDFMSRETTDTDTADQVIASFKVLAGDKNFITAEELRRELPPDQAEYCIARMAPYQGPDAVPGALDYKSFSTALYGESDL
UniProt O14672: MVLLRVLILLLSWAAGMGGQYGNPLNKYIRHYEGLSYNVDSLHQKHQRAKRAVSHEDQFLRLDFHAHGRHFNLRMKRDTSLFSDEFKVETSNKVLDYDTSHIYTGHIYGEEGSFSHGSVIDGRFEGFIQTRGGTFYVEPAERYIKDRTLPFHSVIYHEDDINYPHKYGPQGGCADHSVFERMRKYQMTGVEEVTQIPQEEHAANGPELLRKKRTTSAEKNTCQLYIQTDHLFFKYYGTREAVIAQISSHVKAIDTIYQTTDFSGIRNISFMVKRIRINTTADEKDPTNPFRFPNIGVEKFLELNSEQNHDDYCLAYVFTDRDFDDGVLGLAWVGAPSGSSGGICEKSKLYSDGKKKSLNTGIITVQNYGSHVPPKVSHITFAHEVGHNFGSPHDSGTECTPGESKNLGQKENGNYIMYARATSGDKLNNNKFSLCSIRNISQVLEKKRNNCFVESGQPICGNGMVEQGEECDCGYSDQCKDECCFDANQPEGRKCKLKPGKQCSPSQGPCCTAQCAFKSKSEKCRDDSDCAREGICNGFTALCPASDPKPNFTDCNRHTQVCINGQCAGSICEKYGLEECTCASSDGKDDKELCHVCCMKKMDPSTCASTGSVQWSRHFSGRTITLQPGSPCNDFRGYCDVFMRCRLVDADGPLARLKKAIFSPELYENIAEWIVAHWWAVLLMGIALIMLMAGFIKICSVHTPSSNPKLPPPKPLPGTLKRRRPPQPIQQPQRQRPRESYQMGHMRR

Tests used:
Assay in all cases: log2 fold change, soluble protein after heating vs DMSO (PISA); higher = thermal stabilisation; K562 cells, 10 uM, 30 min; active = over 0.2 and 3.5 SD of the protein, either way, in both replicates (recomputed)
erlotinib = compound: C#Cc1cccc(Nc2ncnc3cc(OCCOC)c(OCCOC)cc23)c1 [erlotinib]
In short: (§1)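 Aliquots of K562 cells (2×10^6 cells/mL) treated with 10 μM compound for 30 min were heated for 3 min over 48°C-58°C. After pooling and extraction in PBS with 0.5% NP-40 at 4°C, soluble protein from a 21,000xg, 90 min spin was quantified by TMTpro 16plex LC-MS/MS with channel sums equalised. Thermal stability is expressed against control samples, from duplicates, as a log2 fold change.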

[1] = compound: C/C(=N\NC(=O)C1=CC(=CC=C1)S(=O)(=O)N2CCOCC2)/C3=C(C=CC(=C3)Cl)O
In short: as §1

[2] = compound: C1=CC(=C(C=C1Cl)C2=NC3=NC=CN=C3C(=N2)NC4=CC=NC=C4)F
In short: as §1

[3] = compound: C1=CC(=CC=C1C2=NC3=C(N2)C=C(C=C3)C(=O)N)OC4=CC=C(C=C4)Cl
In short: as §1

[4] = compound: C1=CC2=C(C=CC(=C2)/C=C\3/C(=O)NC(=NCC4=CC=CS4)S3)N=C1
In short: as §1

[5] = compound: C1=CC2=NC=CN=C2C=C1/C=C/3\C(=O)NC(=O)S3
In short: as §1

[6] = compound: C1=CC=C(C=C1)C2=NC(=C(N2)C3=CC=NC=C3)C4=CC(=C(C=C4)Cl)O
In short: as §1

[7] = compound: C1=CC=C2C(=C1)C3=NNC4=CC=CC(=C43)C2=O
In short: as §1

[8] = compound: C1CCN(C1)C(=O)NC2=CC=CC(=C2)NC3=NC=C(C(=N3)NCCC4=CN=CN4)Br
In short: as §1

[9] = compound: C1CN(CCC1(CC2=CC=C(C=C2)Cl)N)C3=NC=NC4=C3C=CN4
In short: as §1

IRAK-1-4 Inhibitor I = compound: C1COCCN1CCN2C3=CC=CC=C3N=C2NC(=O)C4=CC(=CC=C4)[N+](=O)[O-] [IRAK-1-4 Inhibitor I]
In short: as §1

ibrutinib = compound: C=CC(=O)N1CCC[C@@H](n2nc(-c3ccc(Oc4ccccc4)cc3)c3c(N)ncnc32)C1 [ibrutinib]
In short: as §1

[10] = compound: CC(=O)c1cnc2ccc(-c3cc(Cl)c(O)c(Cl)c3)nc2c1N[C@H]1CC[C@H](CN(C)C)CC1
In short: as §1

ralimetinib = compound: CC(C)(C)Cn1c(N)nc2ccc(-c3[nH]c(C(C)(C)C)nc3-c3ccc(F)cc3)nc21 [ralimetinib]
In short: as §1

[11] = compound: CC(C)(O)CC(=O)NCCn1ccc2ncnc(Nc3ccc(Oc4cccc(C(F)(F)F)c4)c(Cl)c3)c21
In short: as §1

[12] = compound: CC(C)C1=C2N=C(C=C(N2N=C1)NCC3=CC=CC=C3)NCCCCCCN
In short: as §1

[13] = compound: CC(C)C[C@@H](C=O)NC(=O)[C@H](CC(C)C)NC(=O)[C@H](CC(C)C)NC(=O)OCc1ccccc1
In short: as §1

pinometostat = compound: CC(C)N(C[C@H]1O[C@@H](n2cnc3c(N)ncnc32)[C@H](O)[C@@H]1O)[C@H]1C[C@@H](CCc2nc3cc(C(C)(C)C)ccc3[nH]2)C1 [pinometostat]
In short: as §1

[14] = compound: CC1=C(C(CC(=O)N1)C2=CC=C(C=C2)C(F)(F)F)C(=O)NC3=C(C=C4C(=C3)C=NN4)F
In short: as §1

[15] = compound: CC1=C(C2=C(C=C1)C(=O)C3=CC=CC=C3N2CCCN)C
In short: as §1

Measured: log2 fold change

ABCB8 (UniProt Q9NUT2)
inactive: erlotinib 0.028 | [1] 0.035 | [2] -0.023 | [3] 0.017 | [4] 0.055 | [5] 0.071 | [6] -0.058 | [7] -0.003 | [8] -0.004 | [9] 0.036 | IRAK-1-4 Inhibitor I 0.008 | ibrutinib -0.018 | [10] -0.001 | ralimetinib -0.061 | [11] 0.038 | [12] -0.041 | [13] -0.025 | pinometostat 0.026 | [14] -0.024 | [15] 0.018

AAMDC (UniProt Q9H7C9)
inactive: erlotinib -0.001 | [1] 0.052 | [2] 0.226 | [3] -0.02 | [4] 0.142 | [5] 0.062 | [6] 0.024 | [7] -0.001 | [8] -0.042 | [9] 0.016 | IRAK-1-4 Inhibitor I -0.054 | ibrutinib 0.001 | [10] 0.001 | ralimetinib -0.02 | [11] -0.155 | [12] 0.076 | [13] -0.026 | pinometostat -0.1 | [14] -0.007 | [15] 0.222

ABRAXAS2 (UniProt Q15018)
inactive: erlotinib 0.011 | [1] -0.021 | [2] 0.041 | [3] 0.008 | [4] 0.028 | [5] 0.015 | [6] -0.008 | [7] -0.006 | [8] 0.01 | [9] 0.04 | IRAK-1-4 Inhibitor I 0.047 | ibrutinib 0.053 | [10] 0.008 | ralimetinib -0.003 | [11] 0.005 | [12] 0.073 | [13] -0.032 | pinometostat -0.018 | [14] 0.068 | [15] 0.036

ABHD12 isoform 2 (UniProt Q8N2K0)
inactive: erlotinib 0.009 | [1] -0.027 | [2] -0.078 | [3] 0.068 | [4] 0 | [5] 0.03 | [6] -0.022 | [7] -0.045 | [8] -0.037 | [9] 0.006 | IRAK-1-4 Inhibitor I 0.007 | ibrutinib -0.023 | [10] -0.005 | ralimetinib -0.013 | [11] -0.013 | [12] -0.002 | [13] 0.082 | pinometostat 0.05 | [14] -0.005 | [15] 0.014

ADAT2 (UniProt Q7Z6V5)
inactive: erlotinib 0.06 | [1] 0.131 | [2] 0.057 | [3] 0.009 | [4] -0.022 | [5] 0.002 | [6] 0.023 | [7] 0.089 | [8] 0.074 | [9] 0.072 | IRAK-1-4 Inhibitor I -0.009 | ibrutinib 0.001 | [10] 0.012 | ralimetinib -0.052 | [11] 0.017 | [12] -0.016 | [13] -0.027 | pinometostat -0.059 | [14] 0.004 | [15] -0.023

ACAA1 (UniProt P09110)
inactive: erlotinib -0.032 | [1] 0.008 | [2] 0.013 | [3] 0.038 | [4] -0.059 | [5] -0.016 | [6] -0.033 | [7] -0.021 | [8] -0.011 | [9] 0.022 | IRAK-1-4 Inhibitor I 0.01 | ibrutinib 0.054 | [10] 0.009 | ralimetinib 0.02 | [11] 0.003 | [12] 0.045 | [13] -0.006 | pinometostat -0.042 | [14] -0.004 | [15] -0.007

AAAS (UniProt Q9NRG9)
inactive: erlotinib 0.015 | [1] 0.076 | [2] 0.074 | [3] -0.004 | [4] 0 | [5] -0.01 | [6] 0.045 | [7] -0.111 | [8] -0.05 | [9] 0.038 | IRAK-1-4 Inhibitor I -0.041 | ibrutinib 0.016 | [10] -0.056 | ralimetinib 0.008 | [11] -0.071 | [12] -0.091 | [13] -0.033 | pinometostat -0.004 | [14] -0.009 | [15] 0.035

ACSF3 (UniProt Q4G176)
inactive: erlotinib 0.07 | [1] -0.066 | [2] 0.057 | [3] -0.155 | [4] -0.104 | [5] 0.04 | [6] 0.028 | [7] 0.022 | [8] -0.001 | [9] -0.038 | IRAK-1-4 Inhibitor I 0.05 | ibrutinib -0.088 | [10] -0.129 | ralimetinib -0.004 | [11] -0.063 | [12] -0.138 | [13] 0.077 | pinometostat 0.011 | [15] 0.023

ACOT13 (UniProt Q9NPJ3)
inactive: erlotinib -0.017 | [1] 0.004 | [2] -0.013 | [3] 0.009 | [4] -0.007 | [5] 0.002 | [6] 0.086 | [7] 0.026 | [8] -0.01 | [9] 0.067 | IRAK-1-4 Inhibitor I 0.075 | ibrutinib 0.035 | [10] 0.003 | ralimetinib -0.007 | [11] 0.045 | [12] 0.051 | [13] -0.007 | pinometostat -0.098 | [14] -0.059 | [15] 0

ADAR isoform 4 (UniProt P55265)
inactive: erlotinib -0.119 | [1] -0.223 | [2] -0.375 | [3] 0.194 | [4] 0.308 | [5] -0.039 | [6] 0.109 | [7] -0.174 | [8] -0.082 | [9] -0.151 | IRAK-1-4 Inhibitor I -0.008 | ibrutinib 0.079 | [10] 0.091 | ralimetinib 0.198 | [11] 0.074 | [12] -0.2 | [13] 0 | pinometostat 0.033 | [14] 0.037 | [15] 0.057

ADAL (UniProt Q6DHV7)
inactive: erlotinib 0.018 | [1] -0.048 | [2] 0.033 | [3] 0.049 | [4] -0.007 | [5] 0.05 | [6] 0.018 | [7] 0.013 | [8] -0.004 | [9] 0.061 | IRAK-1-4 Inhibitor I 0.119 | ibrutinib -0.038 | [10] 0.008 | ralimetinib 0.049 | [11] -0.065 | [12] 0.092 | [13] -0.049 | pinometostat -0.081 | [14] -0.033 | [15] 0.018

ABCF1 (UniProt Q8NE71)
inactive: erlotinib -0.03 | [1] -0.054 | [2] -0.227 | [3] 0.032 | [4] -0.05 | [5] -0.006 | [6] -0.049 | [7] 0.025 | [8] -0.015 | [9] -0.162 | IRAK-1-4 Inhibitor I -0.046 | ibrutinib 0.016 | [10] 0.022 | ralimetinib 0.102 | [11] 0.046 | [12] 0.014 | [13] 0.098 | pinometostat 0.235 | [14] -0.019 | [15] 0.108

ACTN4 (UniProt O43707)
inactive: erlotinib -0.025 | [1] -0.018 | [2] -0.042 | [3] -0.002 | [4] 0.009 | [5] 0.02 | [6] -0.076 | [7] 0 | [8] 0.005 | [9] 0.017 | IRAK-1-4 Inhibitor I 0.042 | ibrutinib 0.048 | [10] 0.014 | ralimetinib -0.091 | [11] 0.067 | [12] 0.095 | [13] -0.022 | pinometostat -0.058 | [14] -0.021 | [15] 0.004

ACTR2 (UniProt P61160)
inactive: erlotinib 0.003 | [1] 0.001 | [2] 0.028 | [3] -0.062 | [4] 0.013 | [5] 0.008 | [6] 0.011 | [7] 0.001 | [8] -0.01 | [9] 0.001 | IRAK-1-4 Inhibitor I 0.051 | ibrutinib -0.003 | [10] 0.012 | ralimetinib -0.022 | [11] 0 | [12] 0.069 | [13] 0.029 | pinometostat -0.022 | [14] -0.034 | [15] 0.03

ADAM10 (UniProt O14672)
inactive: erlotinib -0.019 | [1] -0.019 | [2] -0.016 | [3] 0.038 | [4] -0.027 | [5] -0.01 | [6] -0.011 | [7] -0.075 | [8] -0.014 | [9] -0.002 | IRAK-1-4 Inhibitor I -0.005 | ibrutinib 0.013 | [10] 0 | ralimetinib -0.013 | [11] 0.028 | [12] 0.011 | [13] 0.032 | pinometostat 0.021 | [14] -0.019 | [15] 0.016

ACTL8 (UniProt Q9H568)
inactive: erlotinib -0.036 | [1] -0.008 | [2] 0.139 | [3] 0.019 | [4] 0.045 | [5] 0.06 | [6] -0.017 | [7] -0.029 | [8] 0.003 | [9] 0.13 | IRAK-1-4 Inhibitor I 0.093 | ibrutinib 0.181 | [10] -0.04 | ralimetinib -0.003 | [11] -0.049 | [12] 0.063 | [13] 0.004 | pinometostat -0.016 | [14] 0.022 | [15] 0.058
